PubChem BioAssay AID1259405 | NCATS | 2018
Test: 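Mouse-designed siRNAs used to find CHO productivity engineering targets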 (primary screen). Cell system: Chinese hamster CHO-K1 ovary cells with stable secreted eGFP expression. Reagent: single siRNA against mouse genes, 0.8 pmol siRNA per well (2 µl of 400 nM stock). Duration: 3 days. Measured: 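Per-well intracellular GFP measured by laser scanning cytometry, plus viability from ATP luminescence, each relative to plate median of non-targeting control wells, in %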. Reading the numbers: GFP, % of control: higher = more GFP per well, higher productivity; viability (ATP), % of control: higher = more viable cells (more ATP). Hit rule: 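Called active when intracellular GFP, relative to negative control, is at or above 120%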.
The deposit covers about 50,000 reagents; this is an unselected part. About 4,000 of them (8%) were called active. 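Mouse siRNA library applied to hamster cells; one well for each siRNA.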 The numbers tell different reagents against one gene apart.

target | reagent | GFP, % of control | viability (ATP), % of control | activity call
Cfap299 (GeneID 75784) | 1 | 60.1 | 73.8 | inactive
Cfap299 (GeneID 75784) | 2 | 72.1 | 58.9 | inactive
Cfap299 (GeneID 75784) | 3 | 62.7 | 82.6 | inactive
Tmem116 (GeneID 77462) | 1 | 73.4 | 65.7 | inactive
Tmem116 (GeneID 77462) | 2 | 67 | 79.3 | inactive
Tmem116 (GeneID 77462) | 3 | 117 | 140 | inactive
Cimap1b (GeneID 70113) | 1 | 91.9 | 64.3 | inactive
Cimap1b (GeneID 70113) | 2 | 70.1 | 92.7 | inactive
Cimap1b (GeneID 70113) | 3 | 56.1 | 62.1 | inactive
Cela3b (GeneID 67868) | 1 | 28.3 | 32.4 | inactive
Cela3b (GeneID 67868) | 2 | 72.5 | 74.1 | inactive
Cela3b (GeneID 67868) | 3 | 36.1 | 43.6 | inactive
Taf8 (GeneID 63856) | 1 | 62.8 | 74.4 | inactive
Taf8 (GeneID 63856) | 2 | 85.8 | 133 | inactive
Taf8 (GeneID 63856) | 3 | 90.4 | 101 | inactive
1700123O20Rik (GeneID 58248) | 1 | 80 | 73.4 | inactive
1700123O20Rik (GeneID 58248) | 2 | 82.9 | 72.2 | inactive
1700123O20Rik (GeneID 58248) | 3 | 67.4 | 62.1 | inactive
Tbc1d16 (GeneID 207592) | 1 | 97.2 | 80.3 | inactive
Tbc1d16 (GeneID 207592) | 2 | 115 | 104 | inactive
Tbc1d16 (GeneID 207592) | 3 | 36.7 | 30.1 | inactive
Arhgef38 (GeneID 77669) | 1 | 98.3 | 59.4 | inactive
Arhgef38 (GeneID 77669) | 2 | 86.1 | 83.5 | inactive
Arhgef38 (GeneID 77669) | 3 | 172 | 116 | active
Tmem179 (GeneID 104885) | 1 | 27.1 | 29.3 | inactive
Tmem179 (GeneID 104885) | 2 | 94.4 | 87.9 | inactive
Tmem179 (GeneID 104885) | 3 | 76.4 | 75 | inactive
Prl7b1 (GeneID 75596) | 1 | 111 | 75.7 | inactive
Prl7b1 (GeneID 75596) | 2 | 88.7 | 78 | inactive
Prl7b1 (GeneID 75596) | 3 | 67.8 | 66.2 | inactive
Naa38 (GeneID 78304) | 1 | 70 | 70.9 | inactive
Naa38 (GeneID 78304) | 2 | 96.8 | 85.5 | inactive
Naa38 (GeneID 78304) | 3 | 54.5 | 38.1 | inactive
Gpd1l (GeneID 333433) | 1 | 78 | 94.1 | inactive
Gpd1l (GeneID 333433) | 2 | 41.2 | 40.3 | inactive
Gpd1l (GeneID 333433) | 3 | 84.5 | 84.6 | inactive
Pcgf6 (GeneID 71041) | 1 | 53 | 61.7 | inactive
Pcgf6 (GeneID 71041) | 2 | 73.6 | 123 | inactive
Pcgf6 (GeneID 71041) | 3 | 75.7 | 81.4 | inactive
Rasl12 (GeneID 70784) | 1 | 106 | 73.1 | inactive
Rasl12 (GeneID 70784) | 2 | 88.6 | 74.1 | inactive
Rasl12 (GeneID 70784) | 3 | 39.2 | 55.1 | inactive
P2rx6 (GeneID 18440) | 1 | 96 | 69.5 | inactive
P2rx6 (GeneID 18440) | 2 | 73 | 53.3 | inactive
P2rx6 (GeneID 18440) | 3 | 84.6 | 69.1 | inactive
Or51m1 (GeneID 258961) | 1 | 85.1 | 78.5 | inactive
Or51m1 (GeneID 258961) | 2 | 65.4 | 68.1 | inactive
Or51m1 (GeneID 258961) | 3 | 73.2 | 73.3 | inactive
Osmr (GeneID 18414) | 1 | 104 | 101 | inactive
Osmr (GeneID 18414) | 2 | 49.3 | 73.9 | inactive
Osmr (GeneID 18414) | 3 | 120 | 53.4 | inactive
Ifitm3 (GeneID 66141) | 1 | 66.7 | 75.5 | inactive
Ifitm3 (GeneID 66141) | 2 | 56.7 | 48.8 | inactive
Ifitm3 (GeneID 66141) | 3 | 68.2 | 86.7 | inactive
Mims2 (GeneID 67017) | 1 | 39.5 | 46.2 | inactive
Mims2 (GeneID 67017) | 2 | 85.7 | 76.1 | inactive
Mims2 (GeneID 67017) | 3 | 68.1 | 93.2 | inactive
Or5ak25 (GeneID 258426) | 1 | 61.6 | 32.5 | inactive
Or5ak25 (GeneID 258426) | 2 | 87.8 | 94.7 | inactive
Or5ak25 (GeneID 258426) | 3 | 58.6 | 74.5 | inactive
Acr (GeneID 11434) | 1 | 96 | 77.9 | inactive
Acr (GeneID 11434) | 2 | 88.6 | 73 | inactive
Acr (GeneID 11434) | 3 | 122 | 75.5 | active
Resf1 (GeneID 67246) | 1 | 48.9 | 18.8 | inactive
Resf1 (GeneID 67246) | 2 | 141 | 66.9 | active
Resf1 (GeneID 67246) | 3 | 68.8 | 62.9 | inactive
Atp5pd (GeneID 71679) | 1 | 54.4 | 47.7 | inactive
Atp5pd (GeneID 71679) | 2 | 185 | 117 | active
Atp5pd (GeneID 71679) | 3 | 78.5 | 86.7 | inactive
Col14a1 (GeneID 12818) | 1 | 75.6 | 76.3 | inactive
Col14a1 (GeneID 12818) | 2 | 75.4 | 64 | inactive
Col14a1 (GeneID 12818) | 3 | 69.5 | 45.2 | inactive
Gtpbp6 (GeneID 107999) | 1 | 63.3 | 60.7 | inactive
Gtpbp6 (GeneID 107999) | 2 | 125 | 76.2 | active
Gtpbp6 (GeneID 107999) | 3 | 124 | 110 | active
Aldh3a2 (GeneID 11671) | 1 | 78.8 | 72 | inactive
Aldh3a2 (GeneID 11671) | 2 | 85.5 | 96.2 | inactive
Aldh3a2 (GeneID 11671) | 3 | 83.3 | 58.6 | inactive
Spen (GeneID 56381) | 1 | 96.1 | 99.1 | inactive
Spen (GeneID 56381) | 2 | 46.8 | 52.5 | inactive
Spen (GeneID 56381) | 3 | 79.3 | 77.9 | inactive
Sarm1 (GeneID 237868) | 1 | 25.1 | 26.1 | inactive
Sarm1 (GeneID 237868) | 2 | 176 | 95.4 | active
Sarm1 (GeneID 237868) | 3 | 79.1 | 54.7 | inactive
Rapgef4 (GeneID 56508) | 1 | 53.8 | 48.8 | inactive
Rapgef4 (GeneID 56508) | 2 | 102 | 69 | inactive
Rapgef4 (GeneID 56508) | 3 | 77.4 | 62.6 | inactive
Cd3e (GeneID 12501) | 1 | 125 | 104 | active
Cd3e (GeneID 12501) | 2 | 70.7 | 86.6 | inactive
Cd3e (GeneID 12501) | 3 | 61.5 | 84.4 | inactive
Tram2 (GeneID 170829) | 1 | 88.1 | 89.6 | inactive
Tram2 (GeneID 170829) | 2 | 71.7 | 105 | inactive
Tram2 (GeneID 170829) | 3 | 80.2 | 97.8 | inactive
Tut1 (GeneID 70044) | 1 | 90.1 | 93.5 | inactive
Tut1 (GeneID 70044) | 2 | 70.5 | 90.8 | inactive
Tut1 (GeneID 70044) | 3 | 75.3 | 90.9 | inactive
Or1n2 (GeneID 258941) | 1 | 91.4 | 67.5 | inactive
Or1n2 (GeneID 258941) | 2 | 112 | 71.5 | inactive
Or1n2 (GeneID 258941) | 3 | 64.3 | 97.1 | inactive
Kptn (GeneID 70394) | 1 | 75.3 | 90.3 | inactive
Kptn (GeneID 70394) | 2 | 56.7 | 58.7 | inactive
Kptn (GeneID 70394) | 3 | 107 | 82.7 | inactive
Sox4 (GeneID 20677) | 1 | 104 | 68 | inactive
Sox4 (GeneID 20677) | 2 | 114 | 69.4 | inactive
Sox4 (GeneID 20677) | 3 | 69.1 | 88.4 | inactive
Cfc1 (GeneID 12627) | 1 | 80.3 | 67.2 | inactive
Cfc1 (GeneID 12627) | 2 | 73.8 | 53.2 | inactive
Cfc1 (GeneID 12627) | 3 | 87.3 | 127 | inactive
